From patent US20210040116A1, “New Polymorphs of Dolutegravir Sodium” (CIPLA LIMITED, priority 2017, published 2021)
Some of these results come from one statement about several compounds together.

Test: Bulk density and tapped density (USP <616> method I)
Format: physicochemical
Excerpt: Suitable methods for determining the bulk density and tapped density of the crystalline form 1A of dolutegravir sodium of the present invention and the crystalline form of dolutegravir sodium form disclosed in WO2010068253 will be well known to the skilled chemist. For example, USP <616> method I may be used.

`C[C@@H]1CCO[C@H]2Cn3cc(C(=O)NCc4ccc(F)cc4F)c(=O)c([O-])c3C(=O)N12.[Na+]` [crystalline form of dolutegravir sodium disclosed in WO20100] [sodium (4R,12aS)-9-{[(2,4,-difluorophenyl)methyl]carbamoyl}-4-methyl-6,8-dioxo-3,4,6,8,12,12a-hexahydro-2H-pyrido[1′,2′:4,5]pyrazino[2,1-b][1,3]oxazin-7-olate] gave a tapped density of 0.4 to 0.5 g/mL.
With `C[C@@H]1CCO[C@H]2Cn3cc(C(=O)NCc4ccc(F)cc4F)c(=O)c([O-])c3C(=O)N12.[Na+]` [Form 1A, sodium (4R,12aS)-9-{[(2,4,-difluorophenyl)methyl]carbamoyl}-4-methyl-6,8-dioxo-3,4,6,8,12,12a-hexahydro-2H-pyrido[1′,2′:4,5]pyrazino[2,1-b][1,3]oxazin-7-olate] the bulk density was 0.4 to 0.5 g/mL.
